Measured values published in article doi:10.1101/2020.12.10.419598.
No constants are given. Whether binding was seen depends on the method and setting. In cells and extracts the contact can be indirect. Some entries that bind do so weakly or less than the wild type.

Protein sequences, listed by entry. Tags and fused reporters are not part of them. Residues count along the entry.
UniProt Q9Y5K6: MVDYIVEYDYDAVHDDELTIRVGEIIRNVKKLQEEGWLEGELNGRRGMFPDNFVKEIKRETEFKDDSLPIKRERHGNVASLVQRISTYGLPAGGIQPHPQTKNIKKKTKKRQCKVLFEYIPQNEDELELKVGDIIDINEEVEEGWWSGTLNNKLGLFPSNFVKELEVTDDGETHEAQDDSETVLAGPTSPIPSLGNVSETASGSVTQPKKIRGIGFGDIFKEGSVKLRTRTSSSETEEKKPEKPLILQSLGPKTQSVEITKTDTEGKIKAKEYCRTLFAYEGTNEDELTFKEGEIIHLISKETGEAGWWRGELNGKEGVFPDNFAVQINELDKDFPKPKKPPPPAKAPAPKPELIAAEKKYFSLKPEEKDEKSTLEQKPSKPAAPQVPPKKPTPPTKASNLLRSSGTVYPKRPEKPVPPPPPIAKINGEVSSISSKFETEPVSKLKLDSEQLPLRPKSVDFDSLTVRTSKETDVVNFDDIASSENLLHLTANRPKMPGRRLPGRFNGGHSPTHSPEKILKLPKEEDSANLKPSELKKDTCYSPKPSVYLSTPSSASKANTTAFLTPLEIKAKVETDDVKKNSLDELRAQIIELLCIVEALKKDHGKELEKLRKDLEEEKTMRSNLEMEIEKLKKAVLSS
UniProt Q9JLQ0: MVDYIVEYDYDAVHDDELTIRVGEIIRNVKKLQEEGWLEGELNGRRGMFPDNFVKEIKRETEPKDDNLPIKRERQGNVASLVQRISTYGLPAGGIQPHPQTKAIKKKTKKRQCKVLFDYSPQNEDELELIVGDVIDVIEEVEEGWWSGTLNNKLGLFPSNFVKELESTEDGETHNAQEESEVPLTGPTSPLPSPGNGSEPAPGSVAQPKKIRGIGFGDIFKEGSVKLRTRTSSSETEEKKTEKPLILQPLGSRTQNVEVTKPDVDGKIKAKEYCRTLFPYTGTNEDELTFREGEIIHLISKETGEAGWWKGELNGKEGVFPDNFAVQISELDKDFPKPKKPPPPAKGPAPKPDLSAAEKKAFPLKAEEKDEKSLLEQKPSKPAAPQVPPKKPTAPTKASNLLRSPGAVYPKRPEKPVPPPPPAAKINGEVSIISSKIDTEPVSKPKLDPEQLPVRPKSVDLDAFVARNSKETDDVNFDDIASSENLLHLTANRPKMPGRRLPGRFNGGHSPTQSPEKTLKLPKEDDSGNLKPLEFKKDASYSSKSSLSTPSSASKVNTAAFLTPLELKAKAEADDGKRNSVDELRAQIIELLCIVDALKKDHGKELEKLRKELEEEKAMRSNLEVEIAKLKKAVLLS
UniProt Q924X6, residues 29-996: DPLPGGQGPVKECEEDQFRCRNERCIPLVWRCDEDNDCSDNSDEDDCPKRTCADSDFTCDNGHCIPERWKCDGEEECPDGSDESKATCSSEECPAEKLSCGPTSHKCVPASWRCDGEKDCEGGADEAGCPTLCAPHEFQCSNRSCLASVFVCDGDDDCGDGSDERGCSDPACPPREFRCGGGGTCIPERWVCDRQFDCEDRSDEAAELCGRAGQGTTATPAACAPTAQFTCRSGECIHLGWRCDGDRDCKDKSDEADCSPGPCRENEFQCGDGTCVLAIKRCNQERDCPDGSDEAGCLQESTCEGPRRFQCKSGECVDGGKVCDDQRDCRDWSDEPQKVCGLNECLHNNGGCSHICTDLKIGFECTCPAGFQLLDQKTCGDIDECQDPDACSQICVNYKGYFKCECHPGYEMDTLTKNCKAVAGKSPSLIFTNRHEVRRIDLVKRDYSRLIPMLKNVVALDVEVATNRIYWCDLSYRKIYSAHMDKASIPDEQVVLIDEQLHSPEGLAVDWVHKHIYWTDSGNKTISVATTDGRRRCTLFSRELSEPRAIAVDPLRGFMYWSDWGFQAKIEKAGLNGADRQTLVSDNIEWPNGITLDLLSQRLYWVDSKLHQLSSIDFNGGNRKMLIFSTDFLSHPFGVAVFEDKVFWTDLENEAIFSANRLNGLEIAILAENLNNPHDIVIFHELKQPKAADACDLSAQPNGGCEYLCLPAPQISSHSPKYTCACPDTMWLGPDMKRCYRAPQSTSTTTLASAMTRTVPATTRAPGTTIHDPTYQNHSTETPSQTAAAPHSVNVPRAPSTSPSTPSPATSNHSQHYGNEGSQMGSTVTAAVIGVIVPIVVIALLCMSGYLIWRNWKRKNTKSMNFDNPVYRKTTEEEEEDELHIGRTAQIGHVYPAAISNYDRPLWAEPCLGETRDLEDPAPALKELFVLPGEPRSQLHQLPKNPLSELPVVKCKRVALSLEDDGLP
UniProt Q14114, residues 33-963: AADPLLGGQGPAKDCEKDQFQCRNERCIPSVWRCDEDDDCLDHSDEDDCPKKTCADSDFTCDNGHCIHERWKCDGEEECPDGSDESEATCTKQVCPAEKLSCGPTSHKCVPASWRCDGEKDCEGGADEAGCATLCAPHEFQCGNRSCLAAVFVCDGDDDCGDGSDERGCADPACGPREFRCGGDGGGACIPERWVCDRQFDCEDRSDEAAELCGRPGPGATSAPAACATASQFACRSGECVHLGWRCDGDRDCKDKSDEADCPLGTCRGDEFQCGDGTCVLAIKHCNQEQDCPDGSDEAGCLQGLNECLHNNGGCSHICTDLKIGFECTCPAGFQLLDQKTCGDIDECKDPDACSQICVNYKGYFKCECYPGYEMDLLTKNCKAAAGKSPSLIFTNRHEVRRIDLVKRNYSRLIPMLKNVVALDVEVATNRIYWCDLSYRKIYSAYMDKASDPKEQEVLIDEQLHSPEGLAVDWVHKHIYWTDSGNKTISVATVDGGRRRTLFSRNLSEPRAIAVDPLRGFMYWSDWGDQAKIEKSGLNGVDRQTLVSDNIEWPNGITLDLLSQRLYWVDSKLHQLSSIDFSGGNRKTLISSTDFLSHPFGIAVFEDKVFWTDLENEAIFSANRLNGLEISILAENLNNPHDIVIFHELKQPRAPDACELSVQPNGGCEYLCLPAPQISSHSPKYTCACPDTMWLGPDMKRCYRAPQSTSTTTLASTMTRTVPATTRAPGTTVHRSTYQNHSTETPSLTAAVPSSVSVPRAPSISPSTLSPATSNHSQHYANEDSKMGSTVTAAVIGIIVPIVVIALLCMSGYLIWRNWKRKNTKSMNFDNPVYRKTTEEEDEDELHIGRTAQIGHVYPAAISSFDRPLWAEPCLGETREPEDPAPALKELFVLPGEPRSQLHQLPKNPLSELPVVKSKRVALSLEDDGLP

Columns and labels:
Experiment in all cases: co-IP
[1] = molecular target: CD2-associated protein (CD2AP), human (human (endogenous in hCMEC/D3)) (UniProt Q9Y5K6)
[2] = molecular target: CD2-associated protein (CD2AP), mouse (mouse (endogenous in adult mouse brain)) (UniProt Q9JLQ0)
[3] = molecular target: ApoE receptor 2 (ApoER2), mouse (mouse (endogenous in adult mouse brain)) (UniProt Q924X6)

Row | binding [1] | Molecule | also measured
1 | binds | ApoE receptor 2 (ApoER2), human (from UniProt Q14114 33-963) | 
2 |  | ApoE receptor 2 (ApoER2), mouse (from UniProt Q924X6 29-996) | binding [2]: binds
3 |  | CD2-associated protein (CD2AP), mouse (from UniProt Q9JLQ0 1-637) | binding [3]: binds
4 | no binding | Phosphatidylinositol Binding Clathrin Assembly Protein (PICALM), human (protein, UniProt Q13492 1-652) MSGQSLTDRITAAQHSVTGSAVSKTVCKATTHEIMGPKKKHLDYLIQCTNEMNVNIPQLADSLFERTTNSSWVVVFKSLITTHHLMVYGNERFIQYLASRNTLFNLSNFLDKSGLQGYDMSTFIRRYSRYLNEKAVSYRQVAFDFTKVKRGADGVMRTMNTEKLLKTVPIIQNQMDALLDFNVNSNELTNGVINAAFMLLFKDAIRLFAAYNEGIINLLEKYFDMKKNQCKEGLDIYKKFLTRMTRISEFLKVAEQVGIDRGDIPDLSQAPSSLLDALEQHLASLEGKKIKDSTAASRATTLSNAVSSLASTGLSLTKVDEREKQAALEEEQARLKALKEQRLKELAKKPHTSLTTAASPVSTSAGGIMTAPAIDIFSTPSSSNSTSKLPNDLLDLQQPTFHPSVHPMSTASQVASTWGDPFSATVDAVDDAIPSLNPFLTKSSGDVHLSISSDVSTFTTRTPTHEMFVGFTPSPVAQPHPSAGLNVDFESVFGNKSTNVIVDSGGFDELGGLLKPTVASQNQNLPVAKLPPSKLVSDDLDSSLANLVGNLGIGNGTTKNDVNWSQPGEKKLTGGSNWQPKVAPTTAWNAATMAPPVMAYPATTPTGMIGYGIPPQMGSVPVMTQPTLIYSQPVMRPPNPFGPVSGAQIQFM | 
